These results are taken from paper PMC13379096.

Protein sequences, listed by entry. Tags and fused reporters are not part of them.
UniProt P61202: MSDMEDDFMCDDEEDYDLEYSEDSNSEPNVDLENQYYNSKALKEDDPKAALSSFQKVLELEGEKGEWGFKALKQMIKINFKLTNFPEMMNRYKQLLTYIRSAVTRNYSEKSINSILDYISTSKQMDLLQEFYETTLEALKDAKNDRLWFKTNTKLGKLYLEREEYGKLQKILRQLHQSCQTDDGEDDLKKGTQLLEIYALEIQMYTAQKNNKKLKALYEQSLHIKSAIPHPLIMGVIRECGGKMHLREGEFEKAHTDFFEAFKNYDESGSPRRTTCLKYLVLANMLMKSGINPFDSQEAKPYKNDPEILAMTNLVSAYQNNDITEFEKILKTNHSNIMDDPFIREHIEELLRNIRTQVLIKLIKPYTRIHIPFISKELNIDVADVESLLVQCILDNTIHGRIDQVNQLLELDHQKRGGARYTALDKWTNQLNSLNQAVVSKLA
UniProt O88543: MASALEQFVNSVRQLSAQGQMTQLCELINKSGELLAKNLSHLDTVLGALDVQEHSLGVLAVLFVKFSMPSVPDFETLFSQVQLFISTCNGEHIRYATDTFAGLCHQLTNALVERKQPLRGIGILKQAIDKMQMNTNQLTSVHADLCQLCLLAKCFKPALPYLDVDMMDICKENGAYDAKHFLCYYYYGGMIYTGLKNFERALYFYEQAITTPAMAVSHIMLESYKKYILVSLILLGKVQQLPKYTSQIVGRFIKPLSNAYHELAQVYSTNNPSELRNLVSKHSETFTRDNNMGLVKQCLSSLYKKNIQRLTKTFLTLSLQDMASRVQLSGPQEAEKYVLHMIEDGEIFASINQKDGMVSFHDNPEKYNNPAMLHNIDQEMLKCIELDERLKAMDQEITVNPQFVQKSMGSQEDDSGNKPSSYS
UniProt O88545: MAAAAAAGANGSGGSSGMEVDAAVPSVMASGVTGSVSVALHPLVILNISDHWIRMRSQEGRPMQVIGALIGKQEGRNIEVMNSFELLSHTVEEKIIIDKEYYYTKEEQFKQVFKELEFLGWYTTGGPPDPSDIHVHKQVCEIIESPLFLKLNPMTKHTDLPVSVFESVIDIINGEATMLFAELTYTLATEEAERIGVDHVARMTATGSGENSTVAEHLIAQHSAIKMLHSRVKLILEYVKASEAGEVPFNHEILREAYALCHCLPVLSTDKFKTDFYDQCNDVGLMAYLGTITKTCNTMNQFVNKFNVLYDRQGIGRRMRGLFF
UniProt Q8VBV7: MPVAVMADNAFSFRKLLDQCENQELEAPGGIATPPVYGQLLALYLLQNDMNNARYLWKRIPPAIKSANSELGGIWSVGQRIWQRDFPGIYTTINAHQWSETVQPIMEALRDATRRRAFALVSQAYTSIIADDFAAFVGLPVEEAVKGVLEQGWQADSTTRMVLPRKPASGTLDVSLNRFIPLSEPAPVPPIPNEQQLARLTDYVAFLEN
UniProt Q9WTX6: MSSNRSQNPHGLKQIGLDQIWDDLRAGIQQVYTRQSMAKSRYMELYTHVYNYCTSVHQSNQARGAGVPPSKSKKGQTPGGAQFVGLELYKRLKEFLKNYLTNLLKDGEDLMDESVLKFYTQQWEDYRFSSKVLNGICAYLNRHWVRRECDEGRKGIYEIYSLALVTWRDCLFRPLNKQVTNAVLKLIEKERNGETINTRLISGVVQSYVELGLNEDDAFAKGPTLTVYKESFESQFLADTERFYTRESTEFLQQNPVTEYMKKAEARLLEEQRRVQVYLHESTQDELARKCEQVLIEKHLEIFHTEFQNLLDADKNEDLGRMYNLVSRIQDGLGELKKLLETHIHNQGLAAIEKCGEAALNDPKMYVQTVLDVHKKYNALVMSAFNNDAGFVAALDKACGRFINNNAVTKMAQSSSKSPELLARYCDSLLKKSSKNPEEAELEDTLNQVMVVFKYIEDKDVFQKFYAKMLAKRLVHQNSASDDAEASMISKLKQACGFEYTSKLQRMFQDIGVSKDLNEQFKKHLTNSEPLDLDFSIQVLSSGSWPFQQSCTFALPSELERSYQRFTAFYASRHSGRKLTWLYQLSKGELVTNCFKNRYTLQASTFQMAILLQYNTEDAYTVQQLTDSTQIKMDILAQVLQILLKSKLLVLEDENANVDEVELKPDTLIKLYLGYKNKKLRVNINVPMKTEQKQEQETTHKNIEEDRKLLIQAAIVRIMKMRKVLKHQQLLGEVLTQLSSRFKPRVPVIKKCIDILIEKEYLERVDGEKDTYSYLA
UniProt Q9JLV5: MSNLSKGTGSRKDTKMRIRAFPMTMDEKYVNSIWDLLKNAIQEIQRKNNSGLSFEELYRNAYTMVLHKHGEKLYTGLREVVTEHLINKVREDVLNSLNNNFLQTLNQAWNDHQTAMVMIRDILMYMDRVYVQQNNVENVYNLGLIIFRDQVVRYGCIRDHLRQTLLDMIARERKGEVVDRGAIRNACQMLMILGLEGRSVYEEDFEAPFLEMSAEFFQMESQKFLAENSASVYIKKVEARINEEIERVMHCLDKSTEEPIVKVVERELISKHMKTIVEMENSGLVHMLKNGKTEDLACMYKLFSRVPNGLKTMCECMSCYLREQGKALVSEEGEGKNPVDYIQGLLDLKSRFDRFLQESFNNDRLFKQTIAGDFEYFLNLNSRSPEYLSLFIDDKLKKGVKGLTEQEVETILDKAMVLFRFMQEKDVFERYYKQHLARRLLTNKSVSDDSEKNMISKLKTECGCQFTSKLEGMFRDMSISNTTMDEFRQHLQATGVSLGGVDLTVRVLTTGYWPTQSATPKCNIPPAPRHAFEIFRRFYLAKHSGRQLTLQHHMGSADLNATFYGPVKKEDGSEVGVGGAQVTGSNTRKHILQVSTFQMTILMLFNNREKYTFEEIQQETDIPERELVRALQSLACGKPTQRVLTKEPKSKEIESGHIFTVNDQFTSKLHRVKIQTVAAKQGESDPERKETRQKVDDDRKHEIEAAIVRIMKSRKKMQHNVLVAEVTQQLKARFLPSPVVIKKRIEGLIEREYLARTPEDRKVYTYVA

These are yes or no findings as the source states them, for the method shown. Binding seen in cells or lysates may run through a third protein. These calls come from enrichment with a bait or labelling near it, and not all partners need be listed. Where a sequence is shown, tags or fusion partners need not be part of it.

Sequences and labels used below:
T1: GST-tagged MEIS1-FL (mouse) (UniProt Q60954)
T1 sequence: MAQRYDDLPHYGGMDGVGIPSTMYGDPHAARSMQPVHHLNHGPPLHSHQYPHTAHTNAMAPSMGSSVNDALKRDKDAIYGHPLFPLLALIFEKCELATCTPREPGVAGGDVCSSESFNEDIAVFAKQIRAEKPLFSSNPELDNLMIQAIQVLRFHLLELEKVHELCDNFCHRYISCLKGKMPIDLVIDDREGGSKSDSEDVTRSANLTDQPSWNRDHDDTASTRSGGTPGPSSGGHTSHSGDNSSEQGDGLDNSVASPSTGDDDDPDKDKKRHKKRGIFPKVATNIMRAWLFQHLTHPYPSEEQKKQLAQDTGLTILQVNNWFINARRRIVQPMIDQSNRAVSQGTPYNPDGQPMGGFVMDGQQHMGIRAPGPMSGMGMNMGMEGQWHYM

T2: GST-tagged ATOH1 (mouse) (UniProt P48985)
T2 sequence: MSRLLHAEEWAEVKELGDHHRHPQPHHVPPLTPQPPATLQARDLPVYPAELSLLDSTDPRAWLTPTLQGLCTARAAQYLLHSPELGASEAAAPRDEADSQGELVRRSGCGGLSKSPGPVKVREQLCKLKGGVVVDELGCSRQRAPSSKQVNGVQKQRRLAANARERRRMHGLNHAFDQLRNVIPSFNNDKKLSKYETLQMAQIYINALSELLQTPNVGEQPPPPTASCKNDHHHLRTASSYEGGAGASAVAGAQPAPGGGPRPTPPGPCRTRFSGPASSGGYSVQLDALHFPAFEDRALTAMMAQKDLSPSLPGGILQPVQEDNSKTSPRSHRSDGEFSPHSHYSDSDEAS

B1: COPS7a (protein, UniProt Q9CZ04 1-275)
chain: MSAEVKVTGQNQEQFLLLAKSAKGAALATLIHQVLEAPGVYVFGELLDMPNVRELAESDFASTFRLLTVFAYGTYADYLAEARNLPPLTDAQKNKLRHLSVVTLAAKVKCIPYAVLLEALALRNVRQLEDLVIEAVYADVLRGSLDQRNQRLEVDYSIGRDIQRQDLSAIAQTLQEWCVGCEVVLSGIEEQVSRANQHKEQQLGLKQQIESEVANLKKTIKVTTAAAAAATSQDPEQHLTELREPASGTNQRQPSKKASKGKGLRGSAKIWSKSN
B2: UBE2M (protein, UniProt P61082 1-183)
chain: MIKLFSLKQQKKEEESAGGTKGSSKKASAAQLRIQKDINELNLPKTCDISFSDPDDLLNFKLVICPDEGFYKSGKFVFSFKVGQGYPHDPPKVKCETMVYHPNIDLEGNVCLNILREDWKPVLTINSIIYGLQYLFLEPNPEDPLNKEAAEVLQNNRRLFEQNVQRSMRGGYIGSTYFERCLK
B3: CAND1 (protein, UniProt Q6ZQ38 1-1230)
chain: MASASYHISNLLEKMTSSDKDFRFMATNDLMTELQKDSIKLDDDSERKVVKMILRLLEDKNGEVQNLAVKCLGPLVSKVKEYQVETIVDTLCTNMLSDKEQLRDISSIGLKTVIGELPPASSGSALAANVCKKITGRLTSAIAKQEDVSVQLEALDIMADMLSRQGGLLVNFHPSILTCLLPQLTSPRLAVRKRTIIALGHLVMSCGNIVFVDLIEHLLSELSKNDSMSTTRTYIQCIAAISRQAGHRIGEYLEKIIPLVVKFCNVDDDELREYCIQAFESFVRRCPKEVYPHVSTIINICLKYLTYDPNYNYDDEDEDENAMDADGGDDDDQGSDDEYSDDDDMSWKVRRAAAKCLDAVVSTRHEMLPEFYKTVSPALIARFKEREENVKADVFHAYLSLLKQTRPVQSWLCDPDAMEQGDTPLTMLQSQVPNIVKALHKQMKEKSVKTRQCCFNMLTELVNVLPGALTQHIPVLVPGIIFSLNDKSSSSNLKIDALSCLYVILCNHSPQVFHPHVQALVPPVVACVGDPFYKITSEALLVTQQLVKVIRPLDQPSSFDATPYIKDLFTCTIKRLKAADIDQEVKERAISCMGQIICNLGDNLGPDLSNTLQIFLERLKNEITRLTTVKALTLIAGSPLKIDLRPVLGEGVPILASFLRKNQRALKLGTLSALDILIKNYSDSLTAAMIDAVLDELPPLISESDMHVSQMAISFLTTLAKVYPSSLSKISGSILNELIGLVRSPLLQGGALSAMLDFFQALVVTGTNNLGYMDLLRMLTGPVYSQSTALTHKQSYYSIAKCVAALTRACPKEGPAVVGQFIQDVKNSRSTDSIRLLALLSLGEVGHHIDLSGQLELKSVILEAFSSPSEEVKSAASYALGSISVGNLPEYLPFVLQEITSQPKRQYLLLHSLKEIISSASVAGLKPYVENIWALLLKHCECAEEGTRNVVAECLGKLTLIDPETLLPRLKGYLISGSSYARSSVVTAVKFTISDHPQPIDPLLKNCIGDFLKTLEDPDLNVRRVALVTFNSAAHNKPSLIRDLLDSVLPHLYNETKVRKELIREVEMGPFKHTVDDGLDIRKAAFECMYTLLDSCLDRLDIFEFLNHVEDGLKDHYDIKMLTFLMLVRLSTLCPSAVLQRLDRLVEPLRATCTTKVKANSVKQEFEKQDELKRSAMRAVAALLTIPEAEKSPLMSEFQSQISSNPELAAIFESIQKDSSSTNLESMDTS

The target of the first test is T1, GST-tagged MEIS1-FL (mouse). As to the kind of experiment: affinity purification with mass spectrometry; GST-MEIS1-FL transfected into N2a cells, precipitated with glutathione beads, LC-MS/MS; single biological replicate.
Consider COPS2 (from UniProt P61202 1-443), for which the binding entry is on record as “binds”.

Consider COPS3 (from UniProt O88543 1-423), for which the binding entry was “binds”. On the same count and under the same terms, for COPS4 (from UniProt O88544 1-406) the value was “binds”; for “COPS6 (of N2a cells) (from UniProt O88545 1-324)”, “binds”; for COPS8 (from UniProt Q8VBV7 1-209), “binds”. As for CUL1 (from UniProt Q9WTX6 1-776), the binding result is “binds”.

On to B1, for which the binding result is “binds”.

A further test addresses T2, GST-tagged ATOH1 (mouse). Description: affinity purification with mass spectrometry; GST-ATOH1 transfected into N2a cells (alone or plus MEIS1-FL), pulled down, bound molecules by LC-MS/MS; single biological replicate.
On to “Cullin-3 (CUL3) (from UniProt Q9JLV5 1-768)”, for which the binding result was “binds”. As for B2, the binding entry is on record as “binds”. Same read-out and setting: for B3 the value was “binds”.
